Measured values as given in PubChem BioAssay AID540256 (National Center for Advancing Translational Sciences (NCATS), 2011).
The whole screen tested about 300,000 compounds, of which about 3,700 (1.2%) were called active. The inconclusive results got no clear call from the source; some entries with a clear call stand among them for comparison. Calls come from the whole dose curve; tested in HEK293 cells. Where the call is inconclusive, the potency comes from a doubtful curve fit.

experiment: qHTS for Inhibitors of binding or entry into cells for Lassa Virus; conditions: Lassa virus pseudotype entry inhibition, cell reporter; series mostly up to 37.9 µM; note: nearly all actives have a fitted effect of over 50% in size
Potency is the fitted concentration of half-maximal effect.

| Structure (SMILES) | Potency |
| --- | --- |
| CCOC(=O)c1cnn(-c2cc(C)nc3c(-c4ccccc4)c(C)nn23)c1N | inconclusive: 35.5 µM [inhibitor, single point] |
| Cc1ccc(Sc2ccc(NC(=O)CCl)cc2)cc1C | inconclusive: 23.1 µM [inhibitor, partial curve, poor fit] |
| Cc1nc2ccccc2c2c(N)c3ccccc3n12 | inactive |
| CC(=O)c1ccc(NC(=S)Nc2ccn(Cc3ccc(Br)cc3)n2)cc1 | inconclusive: 22.4 µM [inhibitor, single point] |
| Cn1c(SCC(=O)Nc2cc(Cl)cc(Cl)c2)nnc1-c1ccc2nonc2c1 | inconclusive: 15.8 µM [inhibitor, single point] |
| COc1ccc(N(Cc2ccccc2)S(=O)(=O)c2ccc(C)cc2)cc1 | inconclusive: 3.55 µM [inhibitor, partial curve, poor fit] |
| COc1ccc(C(=O)NCC(=O)N/N=C/c2ccc([N+](=O)[O-])o2)cc1OC | inconclusive: 31.6 µM [inhibitor, single point] |
| CC(OC(=O)c1ccccc1NS(=O)(=O)c1cccc(N)c1)C(=O)N(C)Cc1ccccc1 (stereo not given) | inconclusive: 18.4 µM [inhibitor, single point] |
| COc1ccc(CC(=O)Nc2nnc(SCC(=O)NCc3ccco3)s2)cc1OC | inactive |
| CC(C)(C)C(=O)NCCc1nc2ccccc2n1CCCCOc1ccc(Cl)cc1 | inconclusive: 22.4 µM [inhibitor, single point] |
| Nc1ccc2oc(-c3ccccn3)nc2c1 | inconclusive: 7.3 µM [activator, partial curve, poor fit] |
| NC(=O)CC[C@H](NC(=O)OCc1ccccc1)C(=O)OCc1ccc(Cl)cc1 | inconclusive: 18.4 µM [activator, single point] |
| CCOC(=O)CSc1nnc(CNc2ccc(Cl)cc2)n1-c1ccccc1 | inactive |
| CCN1CCN(c2ccc(NC(=O)c3ccc([N+](=O)[O-])o3)cc2Cl)CC1 | inconclusive: 11.2 µM [inhibitor, partial curve, poor fit] |
| COc1ccc(C(=O)OCC(=O)c2cc(OC)ccc2OC)c(OC)c1 | inconclusive: 35.5 µM [inhibitor, single point] |
| CC(=O)c1ccc(NC(=O)Cn2c(=O)c3cccn3c3ccccc32)cc1 | active: 1.78 µM |
| CCn1c(SCC(=O)NCC2CCCO2)nc2c(c1=O)SCC2 (stereo not given) | inactive |
| COc1cc(SC)ccc1C(=O)Nc1ccc(S(=O)(=O)N2CCCC2)cc1 | inactive |
| CN(C)/C=C1\C(=O)N(c2ccc([N+](=O)[O-])cc2)N=C1c1ccccc1 | inconclusive: 7.08 µM [activator, partial curve, poor fit] |
| COc1ccc(OCCNc2cc(N3CCCCC3)ccc2[N+](=O)[O-])cc1 | inconclusive: 35.5 µM [inhibitor, single point] |
| CC(=O)N1CCc2cc(S(=O)(=O)NCCC(=O)Nc3ccc4c(c3)OCCO4)ccc21 | inconclusive: 12.6 µM [activator, partial curve] |
| COc1ccc(Cn2c(C(=O)O)c(CNCCc3cccs3)c3ccc(C)cc32)cc1 | inactive |

| Structure (SMILES) | Potency |
| --- | --- |
| COc1ccc(-c2nc(-c3ccccc3)c(-c3cc([N+](=O)[O-])ccc3C)[nH]2)cc1O | inconclusive: 25.1 µM [inhibitor, single point] |
| O=C(O)c1ccc2noc(-c3ccccc3)c2c1 | inconclusive: 2.82 µM [activator, full curve] |
| O=C(NC1CCN(Cc2ccccc2)CC1)c1cccc(S(=O)(=O)Nc2cc(C(F)(F)F)ccc2Cl)c1 | inconclusive: 17.8 µM [inhibitor, partial curve, poor fit] |
| O=C(Nc1ccccn1)c1csc2c1CCCC2 | inconclusive: 3.55 µM [activator, single point] |
| Cc1ccc(CCc2nnc(SCC(=O)Nc3ccccc3Cl)n2-c2ccccc2)o1 | inconclusive: 35.5 µM [inhibitor, single point] |
| CCCC=Cc1ccc(CN2C(C)C(=O)N(Cc3cn(CCOCOC)nn3)CCS2(=O)=O)cc1 (stereo not given) | inconclusive: 35.3 µM [inhibitor, single point] |
| Oc1ccc(N=Cc2ccc(O)c(O)c2)cc1 | inconclusive: 28.2 µM [inhibitor, single point] |
| CCC(CC)COC(=O)C1=C(C)NC(=O)NC1c1ccc2c(c1)OCO2 (stereo not given) | inconclusive: 7.94 µM [inhibitor, partial curve, poor fit] |
| CCC(=O)Nc1cccc(NC(=S)NC(=O)c2cccc(C)c2)c1 | inconclusive: 1.84 µM [activator, partial curve] |
| CC(=O)c1cccc(NC(=O)c2cccn(Cc3cccc(C)c3)c2=O)c1 | inconclusive: 22.4 µM [inhibitor, single point] |
| O=C(NC(=S)NCc1ccc(F)cc1)c1ccccc1 | inconclusive: 10 µM [inhibitor, partial curve] |
| CCOC(=O)c1c(C)[nH]c(C(=O)OCc2ccc(F)cc2)c1C | inconclusive: 5.62 µM [inhibitor, single point] |
| Cc1ccc(CCNC(=O)NC(C)(C)C)cc1 | inconclusive: 5.62 µM [inhibitor, single point] |
| Cc1nc2ccccc2c(=O)n1-c1cc(F)ccc1F | inactive |
| CCN(CC)S(=O)(=O)c1ccc(OC)c(NC(=O)c2cc(=O)[nH]c3ccccc23)c1 | inconclusive: 7.08 µM [inhibitor, full curve, poor fit] |
| C=C(C)C1CC=C(C)/C(=N/NC(=O)C2CC2c2ccccc2)C1 (stereo not given) | inconclusive: 6.51 µM [inhibitor, partial curve] |
| COc1ccc(-c2nc(CNS(=O)(=O)c3ccccc3)cs2)cc1 | inconclusive: 35.5 µM [inhibitor, single point] |
| CCOc1ccc(-n2c(SCC(=O)Nc3ccc(OC)cc3)nc3sc4c(c3c2=O)CCN(C)C4)cc1 | inconclusive: 1.26 µM [inhibitor, full curve, poor fit] |
| Cc1cccc(C)c1OCC(O)Cn1nnc2ccccc21 (stereo not given) | inactive |
| CCn1c(CNC(=O)C23CC4CC(CC(C4)C2)C3)nnc1SCC(=O)Nc1ccccc1 | inactive |
| O=S(=O)(c1cccc(Cl)c1)N1CN(CC2CCCO2)c2nc3ccccc3nc21 (stereo not given) | inconclusive: 35.5 µM [inhibitor, single point] |
| Cc1ccc(C)c(OCCn2cc(C(=O)c3ccco3)c3ccccc32)c1 | inconclusive: 3.16 µM [inhibitor, single point] |

| Structure (SMILES) | Potency |
| --- | --- |
| O=C(CCNS(=O)(=O)c1ccccc1C(F)(F)F)NNC(=O)C1COc2ccccc2O1 (stereo not given) | inconclusive: 1.26 µM [activator, single point] |
| CCc1cc2cc(C)ccc2nc1SCC(=O)N1CCN(C(=O)c2ccco2)CC1 | inactive |
| CCCCC(=O)N(CCOC)c1nnc(-c2ccccc2C)s1 | inactive |
| CC(=O)Nc1ccc(Nc2cc(C)nc3c(-c4ccc(Cl)cc4)cnn23)cc1 | inconclusive: 35.5 µM [inhibitor, partial curve, poor fit] |
| COc1ccc(-c2nc(CN(CC3CCC(=O)N3)C(C)C)c(C)o2)c(C)c1C (stereo not given) | inconclusive: 2.51 µM [inhibitor, full curve] |
| COC(=O)Nc1ccc(S(=O)(=O)N2CCCCC2C(=O)NCc2ccco2)cc1 (stereo not given) | inactive |
| Cc1cc2oc(C(=O)NCc3ccc4c(c3)OCO4)c(C)c2cc1C | inconclusive: 1.83 µM [inhibitor, partial curve, poor fit] |
| Cc1cc(C)n(C(C)CC(=O)Nc2ccc(-c3ccno3)cc2)n1 (stereo not given) | inactive |
| CC(C)n1c(CN(C)c2ccccc2)nc2ccccc21 | inconclusive: 35.5 µM [inhibitor, partial curve, poor fit] |
| O=C(/C=C/c1cccnc1)c1ccc([N+](=O)[O-])cc1 | inconclusive: 1 µM [inhibitor, partial curve, poor fit] |
| CC(C)n1c(=N)c(C(=O)NCCc2ccccc2)cc2c(=O)n3ccccc3nc21 | inconclusive: 35.5 µM [inhibitor, partial curve, poor fit] |
| CCc1ccc(C2CC(=O)Nc3cc4c(cc32)OCO4)cc1 (stereo not given) | inactive |
| COCCn1c(COc2cccc(OC)c2)nnc1SCC(=O)NC1CCCCC1 | inactive |
| Cc1ccc(C)c(Nc2nc3c(S(=O)(=O)c4ccc(C(C)C)cc4)nnn3c3ccsc23)c1 | inconclusive: 31.6 µM [inhibitor, single point] |
| CN(Cc1cccnc1)C(=O)c1cc(COc2ccc3ncccc3c2)on1 | inconclusive: 6.31 µM [inhibitor, partial curve, poor fit] |
| Cc1cc(NC(=O)Nc2ccc(OCc3ccccc3)cc2)n(C)n1 | inconclusive: 1.26 µM [inhibitor, single point] |
| N#CC1=C(N)N=C(SCc2cccc3ccccc23)C(C(N)=O)C12CCCCC2 (stereo not given) | inconclusive: 35.5 µM [inhibitor, single point] |
| O=C(Nc1ccc(Cl)cc1Cl)c1cc(S(=O)(=O)N2CCc3ccccc32)ccc1F | inactive |
| Cc1ccc(S(=O)(=O)Nc2cccc(-c3cn4cccc(C)c4n3)c2)cc1 | inactive |
| NC(=O)c1ccsc1NC(=O)COC(=O)C1CC2CCCC(C1)C2=O (stereo not given) | inconclusive: 7.08 µM [activator, full curve, poor fit] |
| COc1ccc(-n2ncc3c(=O)n(CC(=O)Nc4ccc5c(c4)OCCO5)cnc32)cc1 | inconclusive: 12.6 µM [inhibitor, partial curve, poor fit] |

By substructure, the compounds so far containing a COOH group (two)

| Structure (SMILES) | Potency |
| --- | --- |
| COc1ccc(Cn2c(C(=O)O)c(CNCCc3cccs3)c3ccc(C)cc32)cc1 | inactive |
| O=C(O)c1ccc2noc(-c3ccccc3)c2c1 | inconclusive: 2.82 µM [activator, full curve] |

Single entries from the entries so far:
Potency, CCn1c(SCC(=O)NCC2CCCO2)nc2c(c1=O)SCC2 (stereo not given) reads inactive
Potency, O=C(CCNS(=O)(=O)c1ccccc1C(F)(F)F)NNC(=O)C1COc2ccccc2O1 (stereo not given) reads inconclusive: 1.26 µM [activator, single point]
